Measurements published in patent US20140255304.

Sequences of proteins named here, by UniProt entry; tags and fusion partners are left off.
UniProt Q13148, whole entry: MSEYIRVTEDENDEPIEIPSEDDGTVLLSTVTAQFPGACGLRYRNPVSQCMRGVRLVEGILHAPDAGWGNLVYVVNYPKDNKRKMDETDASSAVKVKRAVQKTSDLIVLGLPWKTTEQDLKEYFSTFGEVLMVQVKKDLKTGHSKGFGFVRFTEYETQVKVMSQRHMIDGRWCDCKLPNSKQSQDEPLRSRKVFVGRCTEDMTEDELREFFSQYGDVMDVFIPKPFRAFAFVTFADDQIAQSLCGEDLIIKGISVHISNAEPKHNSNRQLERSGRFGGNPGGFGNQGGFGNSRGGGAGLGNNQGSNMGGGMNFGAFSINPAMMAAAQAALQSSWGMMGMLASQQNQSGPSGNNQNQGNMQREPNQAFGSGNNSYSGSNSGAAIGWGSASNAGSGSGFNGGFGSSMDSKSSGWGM

Target: TDP-43 full length (residues 1-414) (Homo sapiens) (UniProt Q13148)
Experiment: FP
Settings: at least 30-fold lower affinity than (UG)6; 40 mM HEPES, 0.5 M KCl, 0.4 M arginine, pH 7.4, 25 C; purified recombinant protein; label: 5' TYE fluorophore

**Q.** Does UUUUUUUUUUUU [(UU)6 control RNA] bind?
**A.** binds more weakly

Weaker means in comparison with the reference protein, sequence or condition of that experiment.
